Data as given in PMC12019163.
These are yes or no findings as the source states them, for the method shown. Binding seen in cells or lysates may run through a third protein. Some binding calls cover weakened binding; strength is not graded here. For some assays here: Tags and fused reporters may be left off the sequences shown.

Sequences of proteins named here, by UniProt entry; tags and fusion partners are left off.
UniProt Q96B97: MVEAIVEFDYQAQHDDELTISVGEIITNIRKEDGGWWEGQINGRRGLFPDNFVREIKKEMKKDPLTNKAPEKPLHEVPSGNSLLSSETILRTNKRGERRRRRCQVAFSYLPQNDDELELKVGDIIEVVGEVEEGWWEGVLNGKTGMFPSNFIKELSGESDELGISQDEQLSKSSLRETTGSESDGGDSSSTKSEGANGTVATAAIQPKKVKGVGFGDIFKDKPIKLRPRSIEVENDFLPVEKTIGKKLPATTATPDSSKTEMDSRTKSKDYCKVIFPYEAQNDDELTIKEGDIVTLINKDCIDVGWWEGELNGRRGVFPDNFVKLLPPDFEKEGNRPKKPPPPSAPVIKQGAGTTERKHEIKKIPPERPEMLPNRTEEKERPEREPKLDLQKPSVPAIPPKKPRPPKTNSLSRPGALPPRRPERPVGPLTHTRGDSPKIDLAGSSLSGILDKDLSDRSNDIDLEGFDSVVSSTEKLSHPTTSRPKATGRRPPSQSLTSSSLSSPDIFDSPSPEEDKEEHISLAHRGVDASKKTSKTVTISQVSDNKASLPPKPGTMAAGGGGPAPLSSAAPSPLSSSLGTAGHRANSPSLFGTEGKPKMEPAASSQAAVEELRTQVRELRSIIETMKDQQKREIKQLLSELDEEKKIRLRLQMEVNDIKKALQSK

T1: Full-length GFP-tagged Dynamin-2 (UniProt P50570)
T1 sequence: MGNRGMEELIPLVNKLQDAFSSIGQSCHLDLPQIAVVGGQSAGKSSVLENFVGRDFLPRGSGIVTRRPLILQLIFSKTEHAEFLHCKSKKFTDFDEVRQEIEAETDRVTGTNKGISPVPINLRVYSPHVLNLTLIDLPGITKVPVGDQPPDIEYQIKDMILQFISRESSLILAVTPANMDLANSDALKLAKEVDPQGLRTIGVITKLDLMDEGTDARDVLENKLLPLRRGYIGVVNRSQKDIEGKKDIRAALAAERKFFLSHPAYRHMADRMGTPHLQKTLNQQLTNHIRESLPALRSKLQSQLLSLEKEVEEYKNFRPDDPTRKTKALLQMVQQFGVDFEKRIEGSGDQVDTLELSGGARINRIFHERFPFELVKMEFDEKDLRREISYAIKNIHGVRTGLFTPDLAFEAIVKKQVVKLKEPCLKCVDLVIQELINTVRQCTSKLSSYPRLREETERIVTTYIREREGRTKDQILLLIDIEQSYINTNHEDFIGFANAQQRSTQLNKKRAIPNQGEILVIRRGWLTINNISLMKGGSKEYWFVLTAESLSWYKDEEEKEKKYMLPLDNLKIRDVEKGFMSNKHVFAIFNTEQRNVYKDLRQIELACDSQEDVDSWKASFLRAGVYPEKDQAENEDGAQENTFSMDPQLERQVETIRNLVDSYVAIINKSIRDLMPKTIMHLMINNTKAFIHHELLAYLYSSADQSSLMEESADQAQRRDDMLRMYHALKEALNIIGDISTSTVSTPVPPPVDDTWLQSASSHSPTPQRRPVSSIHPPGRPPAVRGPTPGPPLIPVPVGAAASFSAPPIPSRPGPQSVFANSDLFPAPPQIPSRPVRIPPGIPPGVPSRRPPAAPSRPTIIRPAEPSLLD


Tests used:
[1] = biological target: T1, Full-length GFP-tagged Dynamin-2; experiment: co-IP; GFP-DNM2 co-expressed with Flag-SH3KBP1 constructs in C2C12 cells; GFP-DNM2 immunoprecipitated from cell extracts with GFP-Trap; blots with anti-GFP, anti-Flag and anti-SH3KBP1
[2] = biological target: GFP-tagged SH3KBP1 full length (human) (UniProt Q96B97); experiment: co-IP; GFP-tagged SH3KBP1 constructs expressed in C2C12 cells; GFP trap assay on cell extracts; blots with anti-ERP72, anti-Calnexin (endogenous proteins) and anti-GFP

| binding [1] | binding [2] | Molecule |
| --- | --- | --- |
| binds |  | FLAG-tagged SH3KBP1 full length (from UniProt Q96B97 1-665) |
|  | binds | Calnexin (protein, UniProt P35564 21-591) HDGHDDDAIDIEDDLDDVIEEVEDSKSKSDASTPPSPKVTYKAPVPTGEVYFADSFDRGSLSGWILSKAKKDDTDDEIAKYDGKWEVDEMKETKLPGDKGLVLMSRAKHHAISAKLNKPFLFDTKPLIVQYEVNFQNGIECGGAYVKLLSKTAELSLDQFHDKTPYTIMFGPDKCGEDYKLHFIFRHKNPKTGVYEEKHAKRPDADLKTYFTDKKTHLYTLILNPDNSFEILVDQSVVNSGNLLNDMTPPVNPSREIEDPEDRKPEDWDERPKIADPDAVKPDDWDEDAPSKIPDEEATKPEGWLDDEPEYIPDPDAEKPEDWDEDMDGEWEAPQIANPKCESAPGCGVWQRPMIDNPNYKGKWKPPMIDNPNYQGIWKPRKIPNPDFFEDLEPFKMTPFSAIGLELWSMTSDIFFDNFIISGDRRVVDDWANDGWGLKKAADGAAEPGVVLQMLEAAEERPWLWVVYILTVALPVFLVILFCCSGKKQSNAMEYKKTDAPQPDVKDEEGKEEEKNKRDEEEEEEKLEEKQKSDAEEDGVTGSQDEEDSKPKAEEDEILNRSPRNRKPRRE |
